Test results from paper PMC11255299.
Results are given in words; binding and its absence hold for the method and conditions named. In cells and extracts the contact can be indirect. Some results given as binding are weak or reduced against the parent protein; the word gives no strength. For some assays here: Where a sequence is shown, tags or fusion partners need not be part of it. One block for each binder: values may come before it.

Sequences of proteins named here, by UniProt entry; tags and fusion partners are left off. A change or cut given only in a name is not applied to a line headed by its entry.
UniProt Q08211: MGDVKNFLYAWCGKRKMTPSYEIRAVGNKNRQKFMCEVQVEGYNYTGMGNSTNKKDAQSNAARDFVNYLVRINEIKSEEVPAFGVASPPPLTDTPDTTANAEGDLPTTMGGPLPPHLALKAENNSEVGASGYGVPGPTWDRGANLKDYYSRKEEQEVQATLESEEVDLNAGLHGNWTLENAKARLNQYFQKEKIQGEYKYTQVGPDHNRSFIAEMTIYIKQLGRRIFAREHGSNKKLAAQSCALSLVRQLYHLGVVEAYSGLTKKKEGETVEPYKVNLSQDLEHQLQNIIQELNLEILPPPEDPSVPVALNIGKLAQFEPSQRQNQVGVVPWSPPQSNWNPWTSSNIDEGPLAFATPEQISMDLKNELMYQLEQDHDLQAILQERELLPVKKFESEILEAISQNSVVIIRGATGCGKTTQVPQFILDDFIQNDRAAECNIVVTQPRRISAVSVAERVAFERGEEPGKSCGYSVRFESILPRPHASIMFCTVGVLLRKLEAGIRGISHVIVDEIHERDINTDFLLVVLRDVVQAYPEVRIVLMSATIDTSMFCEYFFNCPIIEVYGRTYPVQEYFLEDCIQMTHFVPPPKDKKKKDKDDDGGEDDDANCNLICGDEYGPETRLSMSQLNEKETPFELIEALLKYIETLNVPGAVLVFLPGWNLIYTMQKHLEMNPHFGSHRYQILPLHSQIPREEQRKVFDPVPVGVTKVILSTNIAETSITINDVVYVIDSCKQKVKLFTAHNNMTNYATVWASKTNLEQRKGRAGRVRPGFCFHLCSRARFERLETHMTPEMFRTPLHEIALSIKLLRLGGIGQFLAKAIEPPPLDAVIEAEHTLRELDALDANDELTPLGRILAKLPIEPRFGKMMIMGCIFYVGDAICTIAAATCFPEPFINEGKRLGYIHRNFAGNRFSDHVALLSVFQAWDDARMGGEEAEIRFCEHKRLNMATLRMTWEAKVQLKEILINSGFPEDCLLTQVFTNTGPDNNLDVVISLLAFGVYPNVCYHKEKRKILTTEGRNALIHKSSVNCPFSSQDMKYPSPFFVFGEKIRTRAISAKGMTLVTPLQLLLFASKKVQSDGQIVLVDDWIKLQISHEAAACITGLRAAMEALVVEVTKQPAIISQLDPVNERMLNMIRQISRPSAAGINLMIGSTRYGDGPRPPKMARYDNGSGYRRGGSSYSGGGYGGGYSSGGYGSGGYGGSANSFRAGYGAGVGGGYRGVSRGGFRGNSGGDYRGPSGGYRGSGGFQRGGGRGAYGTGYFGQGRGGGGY

Experiments:
SFB-DHX9^WT (human) [1] = molecular target: SFB-DHX9^WT (human) (UniProt Q08211); experiment: pull-down; as a1, lysates (text: nuclear extracts) treated with RNase A (20 μg/mL) before SFB-tag pull-down
SFB-DHX9^WT (human) [2] = molecular target: SFB-DHX9^WT (human) (UniProt Q08211); experiment: pull-down; SFB-DHX9 variants in lysates of transfected HeLa cells (NETN buffer: 20 mM Tris-HCl pH 8.0, 0.5 mM EDTA, 150 mM NaCl, 0.5% Igepal, 10% glycerol, 15 mM NEM) captured on Dynabeads M-280 streptavidin, 4 °C, 4 h; endogenous partners by Western blot
SFB-DHX9^K76R (human) = SFB-DHX9^K76R (human) (UniProt Q08211); experiment: as above
SFB-DHX9^WT (human) [3] = molecular target: SFB-DHX9^WT (human) (UniProt Q08211); experiment: co-IP; FLAG affinity purification (anti-FLAG beads) of SFB-DHX9 from transfected HeLa cells; partners endogenous or HA-tagged, by Western blot; also with co-expressed WT or enzyme-dead RNH-mCherry, and after siControl or siUBC9
[4] = molecular target: endogenous DHX9 (human (endogenous in HeLa)) (UniProt Q08211); experiment: proximity ligation; PLA on PFA-fixed cells treated with RNase A or with RNH (Supplementary Fig. 6l, m)

binding (SFB-DHX9^WT (human) [1]): binds | binding (SFB-DHX9^WT (human) [2]): binds
B1: ADAR1 (protein, UniProt P55265 1-1226)
chain: MNPRQGYSLSGYYTHPFQGYEHRQLRYQQPGPGSSPSSFLLKQIEFLKGQLPEAPVIGKQTPSLPPSLPGLRPRFPVLLASSTRGRQVDIRGVPRGVHLRSQGLQRGFQHPSPRGRSLPQRGVDCLSSHFQELSIYQDQEQRILKFLEELGEGKATTAHDLSGKLGTPKKEINRVLYSLAKKGKLQKEAGTPPLWKIAVSTQAWNQHSGVVRPDGHSQGAPNSDPSLEPEDRNSTSVSEDLLEPFIAVSAQAWNQHSGVVRPDSHSQGSPNSDPGLEPEDSNSTSALEDPLEFLDMAEIKEKICDYLFNVSDSSALNLAKNIGLTKARDINAVLIDMERQGDVYRQGTTPPIWHLTDKKRERMQIKRNTNSVPETAPAAIPETKRNAEFLTCNIPTSNASNNMVTTEKVENGQEPVIKLENRQEARPEPARLKPPVHYNGPSKAGYVDFENGQWATDDIPDDLNSIRAAPGEFRAIMEMPSFYSHGLPRCSPYKKLTECQLKNPISGLLEYAQFASQTCEFNMIEQSGPPHEPRFKFQVVINGREFPPAEAGSKKVAKQDAAMKAMTILLEEAKAKDSGKSEESSHYSTEKESEKTAESQTPTPSATSFFSGKSPVTTLLECMHKLGNSCEFRLLSKEGPAHEPKFQYCVAVGAQTFPSVSAPSKKVAKQMAAEEAMKALHGEATNSMASDNQPEGMISESLDNLESMMPNKVRKIGELVRYLNTNPVGGLLEYARSHGFAAEFKLVDQSGPPHEPKFVYQAKVGGRWFPAVCAHSKKQGKQEAADAALRVLIGENEKAERMGFTEVTPVTGASLRRTMLLLSRSPEAQPKTLPLTGSTFHDQIAMLSHRCFNTLTNSFQPSLLGRKILAAIIMKKDSEDMGVVVSLGTGNRCVKGDSLSLKGETVNDCHAEIISRRGFIRFLYSELMKYNSQTAKDSIFEPAKGGEKLQIKKTVSFHLYISTAPCGDGALFDKSCSDRAMESTESRHYPVFENPKQGKLRTKVENGEGTIPVESSDIVPTWDGIRLGERLRTMSCSDKILRWNVLGLQGALLTHFLQPIYLKSVTLGYLFSQGHLTRAICCRVTRDGSAFEDGLRHPFIVNHPKVGRVSIYDSKRQSGKTKETSVNWCLADGYDLEILDGTRGTVDGPRNELSRVSKKNIFLLFKKLCSFRYRRDLLRLSYGEAKKAARDYETAKNYFKKGLKDMGYGNWISKPQEEKNFYLCPV

binding (SFB-DHX9^WT (human) [1]): binds | binding (SFB-DHX9^K76R (human)): binds | binding (SFB-DHX9^WT (human) [2]): binds
B2: XRN2 (protein, UniProt Q9H0D6 1-950)
chain: MGVPAFFRWLSRKYPSIIVNCVEEKPKECNGVKIPVDASKPNPNDVEFDNLYLDMNGIIHPCTHPEDKPAPKNEDEMMVAIFEYIDRLFSIVRPRRLLYMAIDGVAPRAKMNQQRSRRFRASKEGMEAAVEKQRVREEILAKGGFLPPEEIKERFDSNCITPGTEFMDNLAKCLRYYIADRLNNDPGWKNLTVILSDASAPGEGEHKIMDYIRRQRAQPNHDPNTHHCLCGADADLIMLGLATHEPNFTIIREEFKPNKPKPCGLCNQFGHEVKDCEGLPREKKGKHDELADSLPCAEGEFIFLRLNVLREYLERELTMASLPFTFDVERSIDDWVFMCFFVGNDFLPHLPSLEIRENAIDRLVNIYKNVVHKTGGYLTESGYVNLQRVQMIMLAVGEVEDSIFKKRKDDEDSFRRRQKEKRKRMKRDQPAFTPSGILTPHALGSRNSPGSQVASNPRQAAYEMRMQNNSSPSISPNTSFTSDGSPSPLGGIKRKAEDSDSEPEPEDNVRLWEAGWKQRYYKNKFDVDAADEKFRRKVVQSYVEGLCWVLRYYYQGCASWKWYYPFHYAPFASDFEGIADMPSDFEKGTKPFKPLEQLMGVFPAASGNFLPPSWRKLMSDPDSSIIDFYPEDFAIDLNGKKYAWQGVALLPFVDERRLRAALEEVYPDLTPEETRRNSLGGDVLFVGKHHPLHDFILELYQTGSTEPVEVPPELCHGIQGKFSLDEEAILPDQIVCSPVPMLRDLTQNTVVSINFKDPQFAEDYIFKAVMLPGARKPAAVLKPSDWEKSSNGRQWKPQLGFNRDRRPVHLDQAAFRTLGHVMPRGSGTGIYSNAAPPPVTYQGNLYRPLLRGQAQIPKLMSNMRPQDSWRGPPPLFQQQRFDRGVGAEPLLPWNRMLQTQNAAFQPNQYQMLAGPGGYPPRRDDRGGRQGYPREGRKYPLPPPSGRYNWN

binding (SFB-DHX9^WT (human) [1]): binds | binding (SFB-DHX9^WT (human) [3]): binds | binding (SFB-DHX9^K76R (human)): binds | binding (SFB-DHX9^WT (human) [2]): binds | binding [4]: binds
B3: DDX21 (protein, UniProt Q9NR30 1-783)
chain: MPGKLRSDAGLESDTAMKKGETLRKQTEEKEKKEKPKSDKTEEIAEEEETVFPKAKQVKKKAEPSEVDMNSPKSKKAKKKEEPSQNDISPKTKSLRKKKEPIEKKVVSSKTKKVTKNEEPSEEEIDAPKPKKMKKEKEMNGETREKSPKLKNGFPHPEPDCNPSEAASEESNSEIEQEIPVEQKEGAFSNFPISEETIKLLKGRGVTFLFPIQAKTFHHVYSGKDLIAQARTGTGKTFSFAIPLIEKLHGELQDRKRGRAPQVLVLAPTRELANQVSKDFSDITKKLSVACFYGGTPYGGQFERMRNGIDILVGTPGRIKDHIQNGKLDLTKLKHVVLDEVDQMLDMGFADQVEEILSVAYKKDSEDNPQTLLFSATCPHWVFNVAKKYMKSTYEQVDLIGKKTQKTAITVEHLAIKCHWTQRAAVIGDVIRVYSGHQGRTIIFCETKKEAQELSQNSAIKQDAQSLHGDIPQKQREITLKGFRNGSFGVLVATNVAARGLDIPEVDLVIQSSPPKDVESYIHRSGRTGRAGRTGVCICFYQHKEEYQLVQVEQKAGIKFKRIGVPSATEIIKASSKDAIRLLDSVPPTAISHFKQSAEKLIEEKGAVEALAAALAHISGATSVDQRSLINSNVGFVTMILQCSIEMPNISYAWKELKEQLGEEIDSKVKGMVFLKGKLGVCFDVPTASVTEIQEKWHDSRRWQLSVATEQPELEGPREGYGGFRGQREGSRGFRGQRDGNRRFRGQREGSRGPRGQRSGGGNKSNRSQNKGQKRSFSKAFGQ

binding (SFB-DHX9^WT (human) [3]): binds
B4: HA-DDX21^WT (protein, UniProt Q9NR30 1-783)
chain: B3 chain
